Reference: patent publication US20250144228A1, “NANOBODY-DRUG ADDUCTS AND USES THEREOF” (priority 2022, published 2025)
These are yes or no findings as the source states them, for the method shown. Some entries that bind do so weakly or less than the wild type.

Protein sequences, listed by entry. Tags and fused reporters are not part of them. Lines headed by an entry give the natural chain unless they say otherwise; changes in a name come on top. Residues count along the entry.
UniProt Q8I0U8: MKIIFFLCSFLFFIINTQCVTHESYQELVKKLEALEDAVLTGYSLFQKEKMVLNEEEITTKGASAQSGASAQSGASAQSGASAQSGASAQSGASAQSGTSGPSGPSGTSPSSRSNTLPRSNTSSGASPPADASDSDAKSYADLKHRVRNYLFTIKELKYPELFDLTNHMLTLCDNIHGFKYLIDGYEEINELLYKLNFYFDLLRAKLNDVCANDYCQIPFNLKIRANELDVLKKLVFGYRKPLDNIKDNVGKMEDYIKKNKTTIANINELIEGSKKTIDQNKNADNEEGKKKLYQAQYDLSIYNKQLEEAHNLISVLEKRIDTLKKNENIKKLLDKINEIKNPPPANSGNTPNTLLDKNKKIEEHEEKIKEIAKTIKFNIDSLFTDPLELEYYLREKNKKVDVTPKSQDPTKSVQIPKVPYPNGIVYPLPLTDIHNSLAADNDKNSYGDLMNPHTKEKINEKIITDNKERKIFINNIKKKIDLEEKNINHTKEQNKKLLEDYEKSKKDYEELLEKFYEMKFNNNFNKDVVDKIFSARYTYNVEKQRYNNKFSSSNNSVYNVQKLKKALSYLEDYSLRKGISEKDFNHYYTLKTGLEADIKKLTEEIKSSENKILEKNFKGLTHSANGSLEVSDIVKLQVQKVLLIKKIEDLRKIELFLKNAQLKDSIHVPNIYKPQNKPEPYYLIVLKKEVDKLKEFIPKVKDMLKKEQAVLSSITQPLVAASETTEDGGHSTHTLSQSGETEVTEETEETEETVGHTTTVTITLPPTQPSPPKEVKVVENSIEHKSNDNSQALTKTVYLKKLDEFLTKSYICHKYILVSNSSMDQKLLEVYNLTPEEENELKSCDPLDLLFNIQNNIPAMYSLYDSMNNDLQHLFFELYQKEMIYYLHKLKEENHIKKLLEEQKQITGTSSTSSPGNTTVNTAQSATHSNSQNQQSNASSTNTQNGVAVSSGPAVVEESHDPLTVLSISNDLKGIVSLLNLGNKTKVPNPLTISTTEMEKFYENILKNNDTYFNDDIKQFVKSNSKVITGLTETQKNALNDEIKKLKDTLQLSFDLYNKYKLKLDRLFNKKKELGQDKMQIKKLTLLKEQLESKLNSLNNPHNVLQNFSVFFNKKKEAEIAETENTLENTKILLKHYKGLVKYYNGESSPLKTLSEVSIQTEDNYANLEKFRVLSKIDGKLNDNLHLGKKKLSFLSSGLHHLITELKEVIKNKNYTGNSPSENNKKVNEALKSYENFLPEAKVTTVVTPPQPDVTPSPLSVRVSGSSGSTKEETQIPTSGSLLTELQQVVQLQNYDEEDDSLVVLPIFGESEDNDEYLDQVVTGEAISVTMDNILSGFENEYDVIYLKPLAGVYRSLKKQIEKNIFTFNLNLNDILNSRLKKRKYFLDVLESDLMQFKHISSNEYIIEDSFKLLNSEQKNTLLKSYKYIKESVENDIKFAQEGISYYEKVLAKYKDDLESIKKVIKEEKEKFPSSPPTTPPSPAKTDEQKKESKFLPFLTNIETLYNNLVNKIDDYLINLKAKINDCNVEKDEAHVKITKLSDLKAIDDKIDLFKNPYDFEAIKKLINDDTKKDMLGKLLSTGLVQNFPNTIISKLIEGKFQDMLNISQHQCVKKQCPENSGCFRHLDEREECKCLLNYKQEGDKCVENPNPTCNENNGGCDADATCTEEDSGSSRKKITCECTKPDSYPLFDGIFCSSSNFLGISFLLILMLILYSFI
P. falciparum MSP-1 full length pro-peptide (p190): residues 20-1699 of Q8I0U8
P. falciparum MSP-1 subunit p83 (plate-bound, isolated): residues 20-722 of Q8I0U8
P. falciparum MSP-1 subunit p42 (plate-bound, isolated): residues 1327-1699 of Q8I0U8

What was measured:
[1] = target: P. falciparum MSP-1 subunit p42 (plate-bound, isolated) (Plasmodium falciparum) (UniProt Q8I0U8); test: Western blot against PfMSP-1 subunits
[2] = target: P. falciparum MSP-1 full length pro-peptide (p190) (Plasmodium falciparum) (UniProt Q8I0U8); test: Western blot against full length p190
[3] = target: P. falciparum MSP-1 subunit p42 (plate-bound, isolated) (Plasmodium falciparum) (UniProt Q8I0U8); test: ELISA on plate-bound MSP-1 subunits, biotinylated VHH, streptavidin-HRP
[4] = target: P. falciparum MSP-1 subunit p83 (plate-bound, isolated) (Plasmodium falciparum) (UniProt Q8I0U8); test: Western blot against PfMSP-1 subunits
[5] = target: P. falciparum MSP-1 subunit p83 (plate-bound, isolated) (Plasmodium falciparum) (UniProt Q8I0U8); test: ELISA on plate-bound MSP-1 subunits, biotinylated VHH, streptavidin-HRP

Measured: binding

B1: anti-p42 A6 VHH (P. falciparum MSP-1 specific) (VHH)
VHH: QVQLVESGGGLVQAGGSLRLSCAASARTFSYYGAAWFRQAPGKEREFVAAVSWNGDDTYYADSVKGRFTISRDNTKNTVSLQMNALKPEDTAVYYCEAAAYGRDWRQSANYVYWGQGTQVTVSS
binds: [1] | [2] | [3]

B2: anti-p83 B4 VHH (P. falciparum MSP-1 specific) (VHH)
VHH: QLQLVESGGGLAQAGGSLRLSCAASGRTSSTKPMGWFRQAPGLEREFVASISWLGGSTLYSDSVKGRFTISRDNAKNTVYLQMNSLKSEDTAVYYCAGGTSAYSGRDSSRYEYWGQGTQVTVSS
binds: [4] | [2] | [5]

B3: anti-p42 G11 VHH (P. falciparum MSP-1 specific) (VHH)
VHH: QVQLVETGGGLVQAGGSLRLSCVVSGRSLILYGMGWFRQAPGKEREFVAGIVWNGGWTYYADSVKGRFTISRDTAKNTVYLQMNSLKPEDTAVYSCAAGPGDGRRRVAPAEYNYWGQGTQVTVSS
binds: [1] | [2] | [3]
